# According to patent publication US5726027A, “Method for treatment of insulin resistance” (The Regents of the University of California, priority 1996, dated 1998):
# Part of at least one peptide drawing is inferred or uncertain, most often the ends. Where a SMILES comes first, the peptide text is derived from it. [ ]: non-standard residue; d: D form. pY = N[C@@H](Cc1ccc(OP(=O)(O)O)cc1)C(=O)O
# Molecular target: T1, insulin receptor binding to PTP1B^C215S -GST (Rattus norvegicus, UniProt P20417, C215S)
# T1 construct: consists of a portion of the catalytic domain of PTP1B from rat brain; made in house
# T1 sequence (P20417 3-277 C215S limits assumed): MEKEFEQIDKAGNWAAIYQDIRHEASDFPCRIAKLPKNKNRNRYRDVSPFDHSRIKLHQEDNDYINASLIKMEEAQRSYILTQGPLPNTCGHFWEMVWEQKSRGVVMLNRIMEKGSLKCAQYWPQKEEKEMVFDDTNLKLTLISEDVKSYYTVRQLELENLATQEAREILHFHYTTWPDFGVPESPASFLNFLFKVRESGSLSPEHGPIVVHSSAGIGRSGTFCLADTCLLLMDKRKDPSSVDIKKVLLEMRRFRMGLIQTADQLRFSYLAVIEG
# Test: Receptor association assay: phosphopeptide inhibition of insulin receptor precipitation by PTP1B^C215S-GST
# Details: purified insulin receptors activated with insulin and ATP; antiphosphotyrosine immunoblot of precipitates and supernatants
row,Compound,concentration at which the phosphopeptide inhibits insulin receptor precipitation by PTP1B^C215S-GST
1,"CC(C)[C@H](NC(=O)[C@H](CO)NC(=O)[C@H](C)N)C(=O)N[C@@H](CCCNC(=N)N)C(=O)N1CCC[C@H]1C(=O)N[C@@H](CCC(=O)O)C(=O)N[C@@H](Cc1ccc(OP(=O)(O)O)cc1)C(=O)N[C@@H](Cc1ccccc1)C(=O)N[C@@H](CO)C(=O)N[C@@H](C)C(=O)O [RPXpY, ASVRPEpYFSA] (H-ASVRPE[pY]FSA-OH)",~ 50 μM
2,"CC[C@H](C)[C@H](NC(=O)[C@@H](N)Cc1c[nH]cn1)C(=O)N1CCC[C@H]1C(=O)N[C@@H](Cc1ccc(OP(=O)(O)O)cc1)C(=O)N[C@H](C(=O)N[C@@H](Cc1c[nH]cn1)C(=O)N[C@@H](CCSC)C(=O)N[C@@H](CC(N)=O)C(=O)NCC(=O)NCC(=O)O)[C@@H](C)O [pY1322, HIPpYTHMNGG] (H-HIP[pY]THMNGG-OH)",~ 500 μM
3,"CC[C@H](C)[C@H](NC(=O)[C@@H](N)CC(=O)O)C(=O)N[C@@H](Cc1ccc(OP(=O)(O)O)cc1)C(=O)N[C@@H](CCC(=O)O)C(=O)N[C@H](C(=O)N[C@@H](CC(=O)O)C(=O)N[C@@H](Cc1ccc(OP(=O)(O)O)cc1)C(=O)N[C@@H](Cc1ccc(OP(=O)(O)O)cc1)C(=O)N[C@@H](CCCNC(=N)N)C(=O)N[C@@H](CCCCN)C(=O)O)[C@@H](C)O [pYpYpY, DIpYETDpYpYRK] (H-DI[pY]ETD[pY][pY]RK-OH)",500 µM
